For at least one compound, name, drawing or mass did not settle the structure.
How the values were obtained:
SARS-CoV-2 [1] = test: SARS-CoV-2 viral load by RT-qPCR in Calu-3 supernatant; format: cell-based; conditions: Cases A-C; 10 μM dose; at 24, 48, and 72 hours
SARS-CoV-2 [2] = test: combination therapy, viral load by RT-PCR (ORF1ab gene) in Calu-3 cells; format: cell-based

In the case of CCC(C)(C)C(=O)O[C@H]1C[C@@H](C)C=C2C=C[C@H](C)[C@H](CC[C@@H]3C[C@@H](O)CC(=O)O3)[C@H]21 [INS102, Simvastatin], the SARS-CoV-2 viral load (SARS-CoV-2 [1]) is reported as “reduced SARS-CoV-2 viral load”, the “decrease in viral load, combination with remdesivir or dexamethasone vs monotherapies” value (SARS-CoV-2 [2]; FIG. 29, pre-treatment 6 hours before infection (MOI 0.01), 24 hours post infection) is reported as “enhanced” and the “enhanced decrease of viral load, combination vs two single agents” value (shortened to “enhanced decrease of viral load”) (SARS-CoV-2 [2]; statin 0.1 μM + Dex 1 μM) is reported as “enhancement in the decrease of viral load”. The “enhanced decrease of viral load” value (SARS-CoV-2 [2]; statin 0.1 μM + Dex 10 μM) was “enhancement in the decrease of viral load”, the “enhanced decrease of viral load” value (SARS-CoV-2 [2]; statin 1 μM + Dex 0.1 μM) was “enhancement in the decrease of viral load” and the “enhanced decrease of viral load” value (SARS-CoV-2 [2]; statin 1 μM + Dex 1 μM) was “enhancement in the decrease of viral load”. The “enhanced decrease of viral load” value (SARS-CoV-2 [2]; statin 1 μM + Remde 100) was “enhancement in the decrease of viral load” and the “enhanced decrease of viral load” value (SARS-CoV-2 [2]; statin 10 μM + Remde 100) was “enhancement in the decrease of viral load”.

Source: patent US20230172849A1, “INHALED STATINS FOR TREATMENT OF VIRAL RESPIRATORY DISEASES” (priority 2020, published 2023)
